The record followed here is PMC3629208.

The chains behind the UniProt entries cited, without tags or fusion partners.
UniProt P31750: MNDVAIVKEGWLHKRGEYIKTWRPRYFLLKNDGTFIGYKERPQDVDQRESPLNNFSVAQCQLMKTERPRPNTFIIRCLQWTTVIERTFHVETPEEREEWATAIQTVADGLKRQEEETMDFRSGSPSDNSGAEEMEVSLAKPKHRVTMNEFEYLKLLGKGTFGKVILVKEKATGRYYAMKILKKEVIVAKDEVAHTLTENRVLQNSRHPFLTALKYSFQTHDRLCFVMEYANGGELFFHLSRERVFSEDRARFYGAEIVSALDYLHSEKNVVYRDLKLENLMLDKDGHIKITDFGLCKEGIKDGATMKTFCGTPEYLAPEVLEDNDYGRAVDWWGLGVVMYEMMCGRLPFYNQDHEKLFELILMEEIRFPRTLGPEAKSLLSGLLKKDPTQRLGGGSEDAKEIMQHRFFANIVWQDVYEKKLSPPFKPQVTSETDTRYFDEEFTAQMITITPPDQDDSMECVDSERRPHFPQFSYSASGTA

The target of test [1] is Akt (protein kinase B), Akt1 (mouse (endogenous in Neuro 2A)) (UniProt P31750). Nature of the test: affinity purification with mass spectrometry; anti-Akt antibody fixed on the beads via DSS but without DSP-crosslinking, Neuro 2A lysate, nanoLC-MS/MS.
The target is the same in test [2]. Description: condition: only with neither DSS- nor DSP-crosslinking; affinity purification with mass spectrometry; conventional co-IP with neither DSS- nor DSP-crosslinking: protein A/G agarose with anti-Akt antibody, pre-cleared Neuro 2A lysate overnight, five washes, elution in Laemmli buffer, nanoLC-MS/MS.
Test [3] has the same target. Description: affinity purification with mass spectrometry; two-step crosslinking co-IP: anti-Akt antibody fixed on protein A/G agarose with DSS, incubated overnight at 4°C with pre-cleared Neuro 2A lysate (1.5 mg protein; PBS, 1% NP-40), then 1.6 mM DSP for 2 h, five washes (25 mM Tris, 150 mM NaCl, 1 mM EDTA, 1% NP-40, 5% glycerol, pH 7.4), elution in Laemmli buffer, SDS-PAGE, nanoLC-MS/MS; cells with or without IGF-1 (10 ng/mL, 10 min); negative control serum IgG or secondary antibody.

Results are given in words; binding and its absence hold for the method and conditions named. In cells and extracts the contact can be indirect. These calls come from enrichment with a bait or labelling near it, and not all partners need be listed. For part of these data: No binding means not detected with the bait.

B1: ErbB3 binding protein 1 (EBP1, also called proliferation-associated protein 2G4) (protein, UniProt P50580 1-394)
chain: MSGEDEQQEQTIAEDLVVTKYKMGGDIANRVLRSLVEASSSGVSVLSLCEKGDAMIMEETGKIFKKEKEMKKGIAFPTSISVNNCVCHFSPLKSDQDYILKEGDLVKIDLGVHVDGFIANVAHTFVIGVAQGTQVTGRKADVIKAAHLCAEAALRLVKPGNQNTQVTEAWNKVAHSFNCTPIEGMLSHQLKQHVIDGEKTIIQNPTDQQKKDHEKAEFEVHEVYAVDVLVSSGEGKAKDAGQRTTIYKRDPSKQYGLKMKTSRAFFSEVERRFDAMPFTLRAFEDEKKARMGVVECAKHELLQPFNVLYEKEGEFVAQFKFTVLLMPNGPMRITSGPFEPDLYKSEMEVQDAELKALLQSSASRKTQKKKKKKASKTVENATSGETLEENGAGD
In the case of B1, the binding entry in test [1] is on record as “no binding (only without DSP-crosslinking)”; in test [2], “no binding”; in test [3], “binds”.
